Residues, ends and D or L forms follow the SMILES beside them.

In this data set the test system is bEVs from K. pneumoniae. Nature of the data set: SPR interaction with immobilized bEVs.

Regarding `NCCCC[C@@H]1NC(=O)[C@H](Cc2c[nH]c3ccccc23)NC(=O)[C@H](CCCCN)NC(=O)[C@H](Cc2c[nH]c3ccccc23)NC(=O)[C@H](CCCCN)NC(=O)[C@H](Cc2c[nH]c3ccccc23)NC1=O` [c-WKWKWK] (cyclo(WKWKWK)), the “increase in KD” value (K. pneumoniae bEVs compared with bEVs from A. baumannii and E. coli ΔtolA) is “twofold increase”.

Regarding `NCCCC[C@@H]1NC(=O)[C@H](CCCCN)NC(=O)[C@H](Cc2c[nH]c3ccccc23)NC(=O)[C@H](Cc2c[nH]c3ccccc23)NC(=O)[C@H](Cc2c[nH]c3ccccc23)NC(=O)[C@H](CCCCN)NC1=O` [c-WWWKKK] (cyclo(WWWKKK)), where the note is “K. pneumoniae bEVs versus bEVs of the other clinical strains”, the “lower KD compared to the KD for other clinical strains” value is on record as “approximately 5 fold”.
